PubChem BioAssay AID493014 (National Center for Advancing Translational Sciences (NCATS), 2011)
The other results are listed elsewhere or left out. These are further read-outs of the screen, such as a control signal, another cell line or another target. No call is given for them. Compounds called inactive in the main read-out are mostly missing here. The note in brackets gives the kind of curve behind each potency; many fits are weak.

Test: qHTS Assay to Find Inhibitors of Chronic Active B-Cell Receptor Signaling
Conditions: ABC-DLBCL IkBa-CBG/CBR reporter, luminescence ratio (green luciferase fused to IkBa over red control in TMD8 lymphoma cells), 4 h
Method in brief: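 Cell line TMD8 (human ABC DLBCL), stably expressing tet-inducible CBG68-IkBa fusion and CBR; IMDM/0.5% FBS; cpd up to 46 uM; dox induction, 4 h, 37C/5% CO2; dual luminescence; green/red ratio; MG132 control.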

[1] = measured here: CBR red luminescence, cell number
[2] = measured here: IkBa-CBG green luminescence

| SMILES | AC50 [1] | AC50 [2] |
| --- | --- | --- |
| O=C(COc1ccc(Cl)cc1)Nc1cccc(-c2ccc(N3CCOCC3)nn2)c1 | 13 µM [falling, partial curve, poor fit] |  |
| Cc1nn(CC(O)COc2ccc3c(c2)CCC3)c(C)c1Br (configuration not stated) | 35.5 µM [falling, single point] |  |
| Cc1ccc(NC(=O)Cn2c(=O)n(CCCCC(=O)NCc3ccco3)c(=O)c3ccccc32)cc1 | 0.82 µM [falling, full curve, poor fit] |  |
| O=C(Nc1cccc([N+](=O)[O-])c1)c1ccncc1 | 6.51 µM [rising, partial curve, poor fit] |  |
| Cc1ccc(S(=O)(=O)CCC(=O)OCC(=O)NC2CCS(=O)(=O)C2)cc1 (configuration not stated) | 29.1 µM [rising, single point] |  |
| COc1cc([N+](=O)[O-])ccc1NC(=O)COC(=O)CCOc1ccc(C)cc1 | 6.51 µM [falling, partial curve] | 5.17 µM [rising, partial curve, poor fit] |
| COc1ccc(CNC(=O)[C@@H](NC(=O)C2CCN(C(=O)[C@@H]3CCCN3C(=O)OC(C)(C)C)CC2)C(C)C)cc1 | 35.5 µM [rising, single point] |  |
| O=C(c1cc(-c2ccc(Cl)cc2)on1)N1CCCCCC1 | 5.62 µM [falling, single point] |  |
| COc1ccc(C(CNC(=O)c2cccc(S(=O)(=O)Nc3ccccc3OC)c2)N2CCCC2)cc1 (configuration not stated) | 29.1 µM [falling, partial curve, poor fit] |  |
| CCCNC(=O)CCc1cc(C(C)(C)C)c(O)c(C(C)(C)C)c1 | 3.66 µM [rising, partial curve, poor fit] |  |
| C/C(=N\NC(=O)c1ccccc1Br)c1ccc(N2CCOCC2)cc1 | 7.08 µM [falling, partial curve, poor fit] |  |
| COc1cccc(-c2nc3ccc([N+](=O)[O-])cc3o2)c1 | 3.98 µM [rising, partial curve, poor fit] |  |
| CCOC(=O)c1ccc(NC(=O)CSc2nnc(-c3ccncc3)n2-c2ccccc2)cc1 | 10 µM [rising, partial curve] |  |
| COc1ccc(NC(=O)Nc2cc(C)cc(C)c2)cn1 | 0.0891 µM [rising, full curve, poor fit] |  |
| O=C(NCc1ccccc1)C(Cc1ccccc1)N1C(=O)C2C3CCC(C3)C2C1=O (configuration not stated) | 11.2 µM [falling, partial curve] |  |
| CCn1ncc(CN2CCC(Oc3cc(C(=O)NC4CC4)ccc3OC)CC2)c1C | 35.5 µM [rising, partial curve, poor fit] |  |
| COC(=O)c1c(-c2cccs2)csc1NC(=O)c1cccnc1 | 7.94 µM [rising, partial curve, poor fit] |  |
| CCN(CC)CCOC(=O)c1ccc(N/C=C(/C#N)c2nc(-c3cccc(OC)c3)cs2)cc1 | 2 µM [rising, partial curve] | 8.91 µM [falling, partial curve, poor fit] |
| N#Cc1ccccc1OCC(=O)Nc1cccc(S(=O)(=O)N2CCCCCC2)c1 | 4.61 µM [falling, partial curve, poor fit] |  |
| CCOc1ccc(Cn2nnc(C(=O)Nc3ccc(OC)cc3OC)c2N)cc1 | 14.6 µM [rising, single point] |  |
| Cc1ccc(C)c(NC(=O)CCC(=O)NNC(=O)C(c2ccccc2)c2ccccc2)c1 | 8.91 µM [rising, partial curve] |  |

Taken from above:
COc1cc([N+](=O)[O-])ccc1NC(=O)COC(=O)CCOc1ccc(C)cc1 – AC50 [1]: 6.51 µM [falling, partial curve]
CCOC(=O)c1ccc(NC(=O)CSc2nnc(-c3ccncc3)n2-c2ccccc2)cc1 – AC50 [1]: 10 µM [rising, partial curve]

Additional records.

| SMILES | AC50 [1] | AC50 [2] |
| --- | --- | --- |
| Cc1ccc(CSCC(=O)N2CCOCC2)cc1 | 20.6 µM [falling, partial curve, poor fit] |  |
| O=S(=O)(c1ccc(F)cc1)N1CCN(CC(O)COc2ccccc2F)CC1 (configuration not stated) | 35.5 µM [falling, single point] |  |
| CC(=O)N(Cc1ccc(Br)cc1)c1ccccc1C(=O)O | 7.08 µM [rising, full curve, poor fit] |  |
| COc1cccc(/C(O)=C2/C(=O)C(=O)N(c3cc(C)on3)C2c2cccs2)c1 (configuration not stated) | 0.0891 µM [falling, full curve, poor fit] |  |
| O=C(NCCc1ccccn1)c1cc2ccccc2o1 | 4.47 µM [falling, partial curve, poor fit] |  |
| O=C(Nc1ccc2ccccc2c1)c1cccc(F)c1 | 10 µM [falling, partial curve] |  |
| CC1(C)C(=O)N(c2ccccc2)C1c1ccccc1O (configuration not stated) | 25.1 µM [rising, partial curve] | 25.1 µM [falling, single point] |
| CCOc1ccc(CCNC(=O)C2CCCN(C(=O)N(C)C)C2)cc1OCC (configuration not stated) | 14.6 µM [rising, partial curve, poor fit] |  |
| CCN1C(=S)N[C@@H](c2ccccc2)C(C(=O)OC)=C1C | 14.1 µM [falling, single point] |  |
| O=S(=O)(Nc1ccccn1)c1cc(Cl)ccc1Cl | 5.62 µM [rising, partial curve, poor fit] |  |
| O=C(NC(=S)NCCc1ccccn1)c1ccccc1 | 12.6 µM [falling, partial curve, poor fit] |  |
| COc1ccccc1N1CCN(C(=O)c2ccc3c(=O)n(Cc4ccco4)c(=S)[nH]c3c2)CC1 | 5.01 µM [falling, full curve] |  |
| C(=N/N1CCN(c2ccccc2)CC1)/c1ccncc1 | 1.12 µM [rising, full curve] |  |
| CCN(CC)S(=O)(=O)c1cccc(-c2nnc(SCc3nnc(-c4cccs4)o3)n2N)c1 | 35.5 µM [falling, single point] |  |
| CCOc1ccc(C2C3=C(CCCC3=O)Nc3ccc4ncccc4c32)cc1 (configuration not stated) | 0.355 µM [rising, full curve, poor fit] |  |
| COc1ccc(Cl)cc1NC(=O)CSc1nnc2[nH]c(=O)cc(-c3ccccc3)n12 | 10 µM [falling, partial curve, poor fit] |  |
| Cc1ccccc1/C=C/C1=NCCN1 | 25.9 µM [falling, single point] |  |
| COC(=O)c1ccc2c(=O)n3nc(Nc4cc(OC)ccc4OC)sc3nc2c1 | 2.82 µM [falling, full curve] |  |
| CCn1c(NCc2cc(Br)ccc2NS(=O)(=O)c2ccc(C)cc2)nc2ccccc21 | 2.51 µM [rising, partial curve, poor fit] |  |
| CCOc1ccccc1NC(=O)CN(Cc1ccccc1)S(C)(=O)=O | 3.66 µM [rising, partial curve, poor fit] |  |
| Cc1ccc(CNC(=O)c2cc3c(-c4ccc(Cl)cc4)nn(C)c3s2)o1 | 7.31 µM [falling, partial curve, poor fit] | 9.2 µM [rising, partial curve, poor fit] |

| SMILES | AC50 [1] | AC50 [2] |
| --- | --- | --- |
| C=CCN=C(NC#N)SCCc1ccccc1 | 0.1 µM [rising, full curve, poor fit] |  |
| COc1cccc(C(=O)NNS(=O)(=O)c2ccc(F)cc2)c1 | 10 µM [falling, partial curve, poor fit] |  |
| O=C(Cc1ccc(Br)cc1)Nc1cccc(Cl)c1 | 11.2 µM [rising, partial curve, poor fit] |  |
| Nc1ncnc2c1ncn2CCc1ccccc1 | 15.8 µM [rising, single point] |  |
| c1ccc(CCNc2nc(-c3ccccn3)cs2)cc1 | 7.94 µM [falling, partial curve] | 35.5 µM [rising, partial curve, poor fit] |
| Cc1ccc(NC(=O)/C(=C\c2ccccc2)NC(=O)c2ccco2)cc1 | 35.5 µM [rising, single point] |  |
| C=CCc1ccccc1OCC(=O)N/N=C/c1ccc(OC(C)=O)cc1OC(C)=O | 7.31 µM [falling, partial curve] |  |
| COc1ccc(/C=C2\NC(=S)N(CC3CCCO3)C2=O)c(OC)c1 (configuration not stated) | 25.1 µM [rising, partial curve, poor fit] |  |
| C=CCn1c(SCC(=O)Nc2ccccc2OC)nnc1-c1ccco1 | 2.06 µM [falling, single point] |  |
| Fc1ccc2nc(N3CCCC3)sc2c1 | 3.16 µM [rising, full curve] |  |
| COC(=O)c1cc2sccc2n1CC(=O)Nc1cc(OC)cc(OC)c1 | 7.08 µM [falling, partial curve] |  |
| Cc1ccc(S(=O)(=O)N2CCCC2C(=O)N2CCCCCC2)cc1 (configuration not stated) | 6.51 µM [falling, partial curve, poor fit] |  |
| Cc1cccc(-n2cnc3cc(C(=O)NCc4ccccc4Cl)ccc32)c1 | 1.41 µM [rising, partial curve, poor fit] |  |
| CCOC(=O)C1CCN(C(=O)Nc2ccc3nc(C)c(C)nc3c2)CC1 | 18.4 µM [falling, partial curve] |  |
| NC(=O)c1ccccc1NC(=O)c1ccccc1F | 0.82 µM [falling, single point] |  |
| CCOc1ccc2[nH]c(=O)c(CN(Cc3ccccc3OC)C(=O)c3ccccc3)cc2c1 | 4.61 µM [falling, single point] |  |
| Oc1ccc(Cl)cc1/C=N/c1nccs1 | 17.8 µM [falling, single point] |  |
| Brc1ccc(-c2noc(-c3ccccn3)n2)o1 | 20 µM [falling, single point] |  |
| O=[N+]([O-])c1ccc(/C=C/c2ccc3cccc(O)c3n2)cc1 | 14.1 µM [falling, single point] |  |
| Cc1ccc(NC(=O)c2ccn(C(=O)Nc3ccccc3)n2)c(C)c1 | 11.2 µM [falling, partial curve, poor fit] |  |
